Assay results reported in publication PMC9417995.
No constants are given. Whether binding was seen depends on the method and setting. For some assays here: Binding seen in cells or lysates may run through a third protein. Some entries that bind do so weakly or less than the wild type. For some assays here: Tags and fused reporters may be left off the sequences shown. One block for each molecule: values may come before it.

By UniProt entry, the sequences of proteins in these tests, tags left out.
UniProt Q9HAU4: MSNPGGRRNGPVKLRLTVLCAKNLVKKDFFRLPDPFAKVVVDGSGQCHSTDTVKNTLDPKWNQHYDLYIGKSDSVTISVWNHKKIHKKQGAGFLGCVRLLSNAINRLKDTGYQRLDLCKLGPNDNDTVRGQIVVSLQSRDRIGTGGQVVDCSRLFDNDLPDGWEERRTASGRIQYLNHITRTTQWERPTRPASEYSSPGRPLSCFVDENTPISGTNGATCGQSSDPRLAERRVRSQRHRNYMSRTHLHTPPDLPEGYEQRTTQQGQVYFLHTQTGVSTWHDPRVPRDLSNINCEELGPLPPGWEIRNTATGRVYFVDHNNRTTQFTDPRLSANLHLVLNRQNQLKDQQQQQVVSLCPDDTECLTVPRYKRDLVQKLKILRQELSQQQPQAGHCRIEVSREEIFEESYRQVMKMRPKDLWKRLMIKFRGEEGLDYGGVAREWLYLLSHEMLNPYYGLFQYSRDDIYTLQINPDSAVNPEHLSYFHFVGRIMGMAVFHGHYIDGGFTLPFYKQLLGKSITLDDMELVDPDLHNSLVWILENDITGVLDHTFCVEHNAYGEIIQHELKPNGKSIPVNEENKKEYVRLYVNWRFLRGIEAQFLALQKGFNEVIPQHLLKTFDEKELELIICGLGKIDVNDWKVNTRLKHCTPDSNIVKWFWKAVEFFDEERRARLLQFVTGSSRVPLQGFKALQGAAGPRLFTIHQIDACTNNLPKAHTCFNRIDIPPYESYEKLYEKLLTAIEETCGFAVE

Experiments:
[1] = molecular target: HER2 receptor (HER2/ErbB2), endogenous (human (endogenous in HCC1954)) (UniProt P04626); assay: co-IP; separated membrane and cytoplasmic fractions from HCC1954 and BT474 cells
[2] = molecular target: HER2 receptor (HER2/ErbB2), endogenous (human (endogenous in HCC1954)) (UniProt P04626); assay: co-IP; endogenous proteins, lysates of four HER2-positive breast cancer cell lines (HCC1954 in Fig. 5A)
[3] = molecular target: MYC-HER2 protein, purified (human) (UniProt P04626); assay: pull-down; competition: different amounts (0, 1, 2, 3 µg) of pure TRAF4, SMURF2 and HER2 protein combined, HER2 pulled down, immunoblot with TRAF4 or SMURF2 antibodies; both purified
[4] = molecular target: MYC-HER2 protein, purified (human) (UniProt P04626); assay: pull-down; in vitro binding of purified GST-TRAF4, FLAG-SMURF2 and MYC-HER2 proteins; both purified
[5] = molecular target: HER2 in transiently transfected cells (human) (UniProt P04626); assay: co-IP; transiently transfected HCC1954 cells and HEK293T cells
[6] = molecular target: HA-HER2-full length (human) (UniProt P04626); assay: co-IP; HA-HER2 full length or truncates transfected into HEK293T cells
[7] = molecular target: FLAG-SMURF2 protein, purified (human) (UniProt Q9HAU4); assay: pull-down; in vitro binding of purified GST-TRAF4, FLAG-SMURF2 and MYC-HER2 proteins; both purified
[8] = molecular target: SMURF2 in transfected cells (UniProt Q9HAU4); assay: co-IP; transiently transfected HCC1954 cells and HEK293T cells

Molecule: SMURF2 in transfected cells (from UniProt Q9HAU4 1-748)
binding [5]: binds
binding [6]: binds

B2: TNF receptor-associated factor 4 (TRAF4), endogenous (protein, UniProt Q9BUZ4 1-470)
chain: MPGFDYKFLEKPKRRLLCPLCGKPMREPVQVSTCGHRFCDTCLQEFLSEGVFKCPEDQLPLDYAKIYPDPELEVQVLGLPIRCIHSEEGCRWSGPLRHLQGHLNTCSFNVIPCPNRCPMKLSRRDLPAHLQHDCPKRRLKCEFCGCDFSGEAYESHEGMCPQESVYCENKCGARMMRRLLAQHATSECPKRTQPCTYCTKEFVFDTIQSHQYQCPRLPVACPNQCGVGTVAREDLPGHLKDSCNTALVLCPFKDSGCKHRCPKLAMARHVEESVKPHLAMMCALVSRQRQELQELRRELEELSVGSDGVLIWKIGSYGRRLQEAKAKPNLECFSPAFYTHKYGYKLQVSAFLNGNGSGEGTHLSLYIRVLPGAFDNLLEWPFARRVTFSLLDQSDPGLAKPQHVTETFHPDPNWKNFQKPGTWRGSLDESSLGFGYPKFISHQDIRKRNYVRDDAVFIRAAVELPRKILS
binding [1]: binds
binding [2]: binds

B3: TRAF4 in transfected cells (protein, UniProt Q9BUZ4 1-470)
chain: B2 chain
binding [8]: binds
binding [5]: binds
binding [6]: binds

Results, then the molecule that gave them:

binding [1]: binds
binding [2]: binds
Molecule: SMAD specific E3 ubiquitin protein ligase protein 2 (SMURF2), endogenous (from UniProt Q9HAU4 1-748)

binding [3]: binds
binding [4]: binds
Molecule: FLAG-SMURF2 protein, purified (from UniProt Q9HAU4 1-748)

binding [3]: binds
binding [7]: binds
binding [4]: binds
B1: GST-TRAF4 protein, purified (protein, UniProt Q9BUZ4 1-470)
chain: B2 chain
